Results from patent US9247740B2, “Isoxazoline derivatives as insecticidal compounds” (Syngenta Participations AG, priority 2011, dated 2016).
Some entries share one result that the patent states for a list of compounds. For at least one compound, name, drawing or mass did not settle the structure.

Assays:
Format in all cases: in vivo
[1] = tested on: Diabrotica balteata (Corn Root Worm); assay: Diabrotica balteata larval test on artificial diet; conditions: 200 ppm (concentration in well 18 ppm), L2 larvae, larval mortality and growth regulation after 5 days
From the text: (§1) This Example illustrates the insecticidal and acaricidal properties of compounds of formula (I).

[2] = tested on: Spodoptera littoralis (Egyptian Cotton Leafworm); assay: Spodoptera littoralis leaf disc spray test; conditions: 200 ppm spray on cotton leaf discs; mortality, feeding behavior, growth regulation 3 days after treatment
Protocol: This Example illustrates the insecticidal and acaricidal properties of compounds of formula (I). Tests were performed as follows:

[3] = tested on: Plutella xylostella (Diamond Back Moth); assay: Plutella xylostella larval test on artificial diet; conditions: 200 ppm (concentration in well 18 ppm), L2 larvae, larval mortality and growth regulation after 6 days
From the text: as §1

[4] = tested on: Thrips tabaci (Onion Thrips); assay: Thrips tabaci leaf disc spray test; conditions: 200 ppm spray on sunflower leaf discs, mixed ages; mortality after 7 days
From the text: as §1

[5] = tested on: Heliothis virescens (Tobacco Budworm); assay: Heliothis virescens egg test on artificial diet; conditions: 200 ppm (concentration in well 18 ppm), eggs 0-24 h old on artificial diet; egg mortality, larval mortality, growth regulation after 4 days
From the text: as §1

[6] = tested on: Tetranychus urticae (Two-Spotted Spider Mite); assay: Tetranychus urticae leaf disc spray test; conditions: 200 ppm spray on bean leaf discs, mixed ages; egg, larval and adult mortality 8 days later
From the text: as §1

Cc1cc(C2=NOC(c3cc(Cl)c(I)c(Cl)c3)(C(F)(F)F)C2)ccc1C(=O)NC1CS(=O)(=O)C1 (stereo not drawn) [Compound A136]
at least 80%: control of Diabrotica balteata [1] | control of Spodoptera littoralis [2] | control of Plutella xylostella [3] | control of Thrips tabaci [4] | control of Heliothis virescens [5] | control of Tetranychus urticae [6]

Cc1cc(C2=NOC(c3cc(Cl)c(I)c(Cl)c3)(C(F)(F)F)C2)ccc1C(=O)NC1(C)CSC1 (stereo not drawn) [Compound A137]
at least 80%: control of Diabrotica balteata [1] | control of Spodoptera littoralis [2] | control of Plutella xylostella [3] | control of Thrips tabaci [4] | control of Heliothis virescens [5] | control of Tetranychus urticae [6]

Cc1cc(C2=NOC(c3cc(Cl)c(I)c(Cl)c3)(C(F)(F)F)C2)ccc1C(=O)NC1CSC1 (stereo not drawn) [Compound A138]
at least 80%: control of Diabrotica balteata [1] | control of Spodoptera littoralis [2] | control of Plutella xylostella [3] | control of Thrips tabaci [4] | control of Heliothis virescens [5] | control of Tetranychus urticae [6]

Cc1cc(C2=NOC(c3cc(Cl)c(F)c(Cl)c3)(C(F)(F)F)C2)ccc1C(=O)NC1(C)CSC1 (stereo not drawn) [Compound A140]
at least 80%: control of Diabrotica balteata [1] | control of Spodoptera littoralis [2] | control of Plutella xylostella [3] | control of Thrips tabaci [4] | control of Heliothis virescens [5] | control of Tetranychus urticae [6]

Cc1cc(C2=NOC(c3cc(Cl)c(F)c(Cl)c3)(C(F)(F)F)C2)ccc1C(=O)NC1CSC1 (stereo not drawn) [Compound A141]
at least 80%: control of Diabrotica balteata [1] | control of Spodoptera littoralis [2] | control of Plutella xylostella [3] | control of Thrips tabaci [4] | control of Heliothis virescens [5] | control of Tetranychus urticae [6]

CSc1c(Cl)cc(C2(C(F)(F)F)CC(c3ccc(C(=O)NC4CS(=O)(=O)C4)c(C)c3)=NO2)cc1Cl (stereo not drawn) [Compound A142]
at least 80%: control of Diabrotica balteata [1] | control of Spodoptera littoralis [2] | control of Plutella xylostella [3] | control of Thrips tabaci [4] | control of Heliothis virescens [5] | control of Tetranychus urticae [6]

Cc1cc(C2=NOC(c3cc(Cl)c(F)c(Cl)c3)(C(F)(F)F)C2)ccc1C(=O)NC1C[S+]([O-])C1 (stereo not drawn) [Compound A146]
at least 80%: control of Diabrotica balteata [1] | control of Spodoptera littoralis [2] | control of Plutella xylostella [3] | control of Thrips tabaci [4] | control of Heliothis virescens [5] | control of Tetranychus urticae [6]

Cc1cc(C2=NOC(c3cc(Cl)c(Cl)c(C(F)(F)F)c3)(C(F)(F)F)C2)ccc1C(=O)NC1CS(=O)(=O)C1 (stereo not drawn) [Compound A157]
at least 80%: control of Diabrotica balteata [1] | control of Spodoptera littoralis [2] | control of Plutella xylostella [3] | control of Thrips tabaci [4] | control of Heliothis virescens [5] | control of Tetranychus urticae [6]

Cc1cc(C2=NOC(c3cc(Cl)c(Cl)c(C(F)(F)F)c3)(C(F)(F)F)C2)ccc1C(=O)NC1(C)CSC1 (stereo not drawn) [Compound A158]
at least 80%: control of Diabrotica balteata [1] | control of Spodoptera littoralis [2] | control of Plutella xylostella [3] | control of Thrips tabaci [4] | control of Heliothis virescens [5] | control of Tetranychus urticae [6]

Cc1cc(C2=NOC(c3cc(Cl)c(Cl)c(C(F)(F)F)c3)(C(F)(F)F)C2)ccc1C(=O)NC1C[S+]([O-])C1 (stereo not drawn) [Compound A159]
at least 80%: control of Diabrotica balteata [1] | control of Spodoptera littoralis [2] | control of Plutella xylostella [3] | control of Thrips tabaci [4] | control of Heliothis virescens [5] | control of Tetranychus urticae [6]

Cc1cc(C2=NOC(c3cc(Cl)c(Cl)c(C(F)(F)F)c3)(C(F)(F)F)C2)ccc1C(=O)NC1CSC1 (stereo not drawn) [Compound A160]
at least 80%: control of Diabrotica balteata [1] | control of Spodoptera littoralis [2] | control of Plutella xylostella [3] | control of Thrips tabaci [4] | control of Heliothis virescens [5] | control of Tetranychus urticae [6]

Cc1cc(C2=NOC(c3cc(C(F)(F)F)c(Cl)c(C(F)(F)F)c3)(C(F)(F)F)C2)ccc1C(=O)NC1CS(=O)(=O)C1 (stereo not drawn) [Compound A166]
at least 80%: control of Diabrotica balteata [1] | control of Spodoptera littoralis [2] | control of Plutella xylostella [3] | control of Thrips tabaci [4] | control of Heliothis virescens [5] | control of Tetranychus urticae [6]

Cc1cc(C2=NOC(c3cc(C(F)(F)F)c(Cl)c(C(F)(F)F)c3)(C(F)(F)F)C2)ccc1C(=O)NC1(C)CSC1 (stereo not drawn) [Compound A167]
at least 80%: control of Diabrotica balteata [1] | control of Spodoptera littoralis [2] | control of Plutella xylostella [3] | control of Thrips tabaci [4] | control of Heliothis virescens [5] | control of Tetranychus urticae [6]

Cc1cc(C2=NOC(c3cc(C(F)(F)F)c(Cl)c(C(F)(F)F)c3)(C(F)(F)F)C2)ccc1C(=O)NC1C[S+]([O-])C1 (stereo not drawn) [Compound A168]
at least 80%: control of Diabrotica balteata [1] | control of Spodoptera littoralis [2] | control of Plutella xylostella [3] | control of Thrips tabaci [4] | control of Heliothis virescens [5] | control of Tetranychus urticae [6]

Cc1cc(C2=NOC(c3cc(C(F)(F)F)c(Cl)c(C(F)(F)F)c3)(C(F)(F)F)C2)ccc1C(=O)NC1CSC1 (stereo not drawn) [Compound A169]
at least 80%: control of Diabrotica balteata [1] | control of Spodoptera littoralis [2] | control of Plutella xylostella [3] | control of Thrips tabaci [4] | control of Heliothis virescens [5] | control of Tetranychus urticae [6]

Cc1cc(C2=NOC(c3cc(Cl)c(SCC(F)(F)F)c(Cl)c3)(C(F)(F)F)C2)ccc1C(=O)NC1CS(=O)(=O)C1 (stereo not drawn) [Compound A170]
at least 80%: control of Diabrotica balteata [1] | control of Spodoptera littoralis [2] | control of Plutella xylostella [3] | control of Thrips tabaci [4] | control of Heliothis virescens [5] | control of Tetranychus urticae [6]

Cc1cc(C2=NOC(c3cc(Cl)c(SC(F)(F)F)c(Cl)c3)(C(F)(F)F)C2)ccc1C(=O)NC1C[S+]([O-])C1 (stereo not drawn) [Compound A176]
at least 80%: control of Diabrotica balteata [1] | control of Spodoptera littoralis [2] | control of Plutella xylostella [3] | control of Thrips tabaci [4] | control of Heliothis virescens [5] | control of Tetranychus urticae [6]

Cc1cc(C2=NOC(c3cc(Cl)c(SCCl)c(Cl)c3)(C(F)(F)F)C2)ccc1C(=O)NC1C[S+]([O-])C1 (stereo not drawn) [Compound A177]
at least 80%: control of Diabrotica balteata [1] | control of Spodoptera littoralis [2] | control of Plutella xylostella [3] | control of Thrips tabaci [4] | control of Heliothis virescens [5] | control of Tetranychus urticae [6]

Cc1cc(C2=NOC(c3cc(Cl)c(SCCl)c(Cl)c3)(C(F)(F)F)C2)ccc1C(=O)NC1CS(=O)(=O)C1 (stereo not drawn) [Compound A179]
at least 80%: control of Diabrotica balteata [1] | control of Spodoptera littoralis [2] | control of Plutella xylostella [3] | control of Thrips tabaci [4] | control of Heliothis virescens [5] | control of Tetranychus urticae [6]

Cc1cc(C2=NOC(c3cc(Cl)c(SC(F)(F)F)c(Cl)c3)(C(F)(F)F)C2)ccc1C(=O)NC1CS(=O)(=O)C1 (stereo not drawn) [Compound A180]
at least 80%: control of Diabrotica balteata [1] | control of Spodoptera littoralis [2] | control of Plutella xylostella [3] | control of Thrips tabaci [4] | control of Heliothis virescens [5] | control of Tetranychus urticae [6]

Cc1cc(C2=NOC(c3cc(Cl)c([S+]([O-])CCl)c(Cl)c3)(C(F)(F)F)C2)ccc1C(=O)NC1CS(=O)(=O)C1 (stereo not drawn) [Compound A181]
at least 80%: control of Diabrotica balteata [1] | control of Spodoptera littoralis [2] | control of Plutella xylostella [3] | control of Thrips tabaci [4] | control of Heliothis virescens [5] | control of Tetranychus urticae [6]

Cc1cc(C2=NOC(c3cc(Cl)c(S(=O)(=O)CCl)c(Cl)c3)(C(F)(F)F)C2)ccc1C(=O)NC1CS(=O)(=O)C1 (stereo not drawn) [Compound A182]
at least 80%: control of Diabrotica balteata [1] | control of Spodoptera littoralis [2] | control of Plutella xylostella [3] | control of Thrips tabaci [4] | control of Heliothis virescens [5] | control of Tetranychus urticae [6]

Cc1cc(C2=NOC(c3cc(Cl)c([S+]([O-])C(F)(F)F)c(Cl)c3)(C(F)(F)F)C2)ccc1C(=O)NC1CS(=O)(=O)C1 (stereo not drawn) [Compound A183]
at least 80%: control of Diabrotica balteata [1] | control of Spodoptera littoralis [2] | control of Plutella xylostella [3] | control of Thrips tabaci [4] | control of Heliothis virescens [5] | control of Tetranychus urticae [6]
